Results deposited as PubChem BioAssay AID686938 (Drosophila RNAi Screening Center, 2013)
Purpose: 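Knock-downs reducing store-operated calcium influx in Drosophila cells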 (primary screen). Cells: Drosophila S2R+ cells. Reagent: long dsRNA against Drosophila genes, about 0.25 µg dsRNA per well, roughly 10,000 cells. Timing: 5 days of knock-down before the calcium assay. Treatment: thapsigargin (SERCA pump blocker) to empty calcium stores; entry signal taken 4 min after adding it. Read-out: 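Duplicate raw fluo-4 intensities per well from a plate reader, at rest and four minutes after thapsigargin emptied calcium stores; entry-to-rest ratio filled for only some wells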. Direction: calcium entry signal: higher = stronger calcium signal after store depletion; resting calcium signal: higher = higher resting calcium signal. Units: calcium entry signal in fluorescence units; resting calcium signal in fluorescence units. Active means: 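Hit if the duplicate-averaged plate z-score for entry over resting signal is under −3; wells with weak total dye signal (Fmax z < −2) or more than 5 off-targets removed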. Calls: active = strongly reduced calcium entry; inactive = no strong reduction.
In all, the deposit lists about 23,000 reagents; this is an unselected part of those with a known target gene and a result. Of all reagents, 75 (0.33%) are marked active. 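Raw plate signals without normalisation; calls rest on plate z-scores that were not deposited; ratio present for only 364 wells.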 A number with no mark means an inactive call. Not stated in the record: the dose of the treatment.

For CG18540 [DRSC06767], how do the results read?
calcium entry signal, replicate 1: 4.98e7; calcium entry signal, replicate 2: 6.48e7; resting calcium signal, replicate 1: 2.08e7; resting calcium signal, replicate 2: 2.82e7

With wap (wings apart) [DRSC20626], how do the results read?
calcium entry signal, replicate 1: 3.44e7; calcium entry signal, replicate 2: 3.92e7; resting calcium signal, replicate 1: 1.56e7; resting calcium signal, replicate 2: 1.85e7

For ytr (yantar) [DRSC04306], what does the deposit list?
calcium entry signal, replicate 1: 2.47e7; resting calcium signal, replicate 1: 1.22e7

With ytr (yantar) [DRSC22073], what does the deposit list?
calcium entry signal, replicate 1: 3.23e7; calcium entry signal, replicate 2: 6.67e7; resting calcium signal, replicate 1: 1.49e7; resting calcium signal, replicate 2: 3.32e7

Which result is listed for CG31954 [DRSC00580]?
calcium entry signal, replicate 1: 4.26e7; resting calcium signal, replicate 1: 2.58e7

Which result is listed for twi (twist) [DRSC04720]?
calcium entry signal, replicate 1: 4.49e7; calcium entry signal, replicate 2: 5.19e7; resting calcium signal, replicate 1: 2.39e7; resting calcium signal, replicate 2: 2.79e7

With twi (twist) [DRSC23185], how do the results read?
calcium entry signal, replicate 1: 5.42e7; calcium entry signal, replicate 2: 3.51e7; resting calcium signal, replicate 1: 2.91e7; resting calcium signal, replicate 2: 1.53e7

With Nup153 (Nucleoporin 153kD) [DRSC19904], how do the results read?
calcium entry signal, replicate 1: 1.94e7; calcium entry signal, replicate 2: 3.16e7; resting calcium signal, replicate 1: 1.18e7; resting calcium signal, replicate 2: 1.80e7

What is on record for CG14694 [DRSC14917]?
calcium entry signal, replicate 1: 3.80e7; calcium entry signal, replicate 2: 3.21e7; resting calcium signal, replicate 1: 1.80e7; resting calcium signal, replicate 2: 1.67e7

What did the screen give for CG4577 [DRSC00658]?
calcium entry signal, replicate 1: 3.25e7; calcium entry signal, replicate 2: 2.96e7; resting calcium signal, replicate 1: 1.64e7; resting calcium signal, replicate 2: 1.34e7

No new results follow: entries from further up.
CG18540 [DRSC06767] — calcium entry signal, replicate 1 = 4.98e7; calcium entry signal, replicate 2 = 6.48e7; resting calcium signal, replicate 1 = 2.08e7; resting calcium signal, replicate 2 = 2.82e7
wap (wings apart) [DRSC20626] — calcium entry signal, replicate 1 = 3.44e7; calcium entry signal, replicate 2 = 3.92e7; resting calcium signal, replicate 1 = 1.56e7; resting calcium signal, replicate 2 = 1.85e7

Continued:
Which result is listed for CG9068 [DRSC07329]?
calcium entry signal, replicate 1: 5.09e7; calcium entry signal, replicate 2: 5.31e7; resting calcium signal, replicate 1: 2.17e7; resting calcium signal, replicate 2: 2.60e7

With CG6066 [DRSC15959], what does the deposit list?
calcium entry signal, replicate 1: 4.67e7; calcium entry signal, replicate 2: 6.00e7; resting calcium signal, replicate 1: 2.47e7; resting calcium signal, replicate 2: 2.47e7

With CG6066 [DRSC22228], how do the results read?
calcium entry signal, replicate 1: 3.78e7; calcium entry signal, replicate 2: 6.72e7; resting calcium signal, replicate 1: 1.75e7; resting calcium signal, replicate 2: 3.07e7

What is on record for Son (Son RNA binding protein) [DRSC16400]?
calcium entry signal, replicate 1: 3.15e7; calcium entry signal, replicate 2: 3.50e7; resting calcium signal, replicate 1: 1.44e7; resting calcium signal, replicate 2: 1.78e7

With CG10589 [DRSC11629], how do the results read?
calcium entry signal, replicate 1: 3.00e7; calcium entry signal, replicate 2: 6.06e7; resting calcium signal, replicate 1: 1.45e7; resting calcium signal, replicate 2: 2.17e7

For CG7781 [DRSC03068], what does the deposit list?
calcium entry signal, replicate 1: 4.02e7; calcium entry signal, replicate 2: 6.75e7; resting calcium signal, replicate 1: 1.91e7; resting calcium signal, replicate 2: 2.95e7

With Trs31 (TRAPP subunit 31) [DRSC05975], what does the deposit list?
calcium entry signal, replicate 1: 4.80e7; calcium entry signal, replicate 2: 4.09e7; resting calcium signal, replicate 1: 2.14e7; resting calcium signal, replicate 2: 2.12e7

Which result is listed for CanA-14F (Calcineurin A at 14F) [DRSC20211]?
calcium entry signal, replicate 1: 2.81e7; calcium entry signal, replicate 2: 3.15e7; resting calcium signal, replicate 1: 1.59e7; resting calcium signal, replicate 2: 1.46e7

For CanA-14F (Calcineurin A at 14F) [DRSC23296], what was measured?
calcium entry signal, replicate 1: 3.97e7; calcium entry signal, replicate 2: 3.22e7; resting calcium signal, replicate 1: 1.92e7; resting calcium signal, replicate 2: 1.53e7

With CG8060 [DRSC07064], what was measured?
calcium entry signal, replicate 1: 3.99e7; calcium entry signal, replicate 2: 3.39e7; resting calcium signal, replicate 1: 1.85e7; resting calcium signal, replicate 2: 1.62e7

What is on record for CG2145 [DRSC19835]?
calcium entry signal, replicate 1: 2.16e7; calcium entry signal, replicate 2: 2.72e7; resting calcium signal, replicate 1: 9.78e6; resting calcium signal, replicate 2: 1.26e7
